{
  "source": "patent US10100070B2",
  "about": "“Borate-based base generator, and base-reactive composition comprising such base generator” (FUJIFILM Wako Pure Chemical Corporation, priority 2014, dated 2018)",
  "key": {"[1]": {"test": "Exposure curing tests using a bisphenol-A-based diglycidyl ether oligomer and an acid anhydride", "conditions": "heated at 120° C. after exposure"}, "[2]": {"test": "Radical UV curing tests using acrylates", "conditions": "UV irradiation, acrylate curing"}},
  "note": "“Also recorded” adds a separate entry of the source. Some compounds share one wording; it may come from a single statement.",
  "data": [
    {"molecule": "1,5,7-triazabicyclo[4.4.0]deca-5-enium 2-(3-benzoylphenyl)propionate [Comp. Ex. 5, reference compound]", "values": [
      {"measurement": "Curing of epoxy with acid anhydride (in words)", "setting": "[1]", "result": "curing at an exposed part and a non-exposed part proceeds at the same time"}
    ]},
    {"molecule": "CC(C(=O)[O-])c1cccc(C(=O)c2ccccc2)c1.CC(C)N=C(NC(N(C)C)=[N+](C)C)NC(C)C", "note": "(stereo not drawn) [Comp. Ex. 6, 1,2-diisopropyl-4,4,5,5-tetramethylbiguanidium 2-(3-benzoylphenyl)propionate, reference compound]", "values": [
      {"measurement": "Curing of epoxy with acid anhydride (in words)", "setting": "[1]", "result": "curing at an exposed part and a non-exposed part proceeds at the same time"}
    ]},
    {"molecule": "CCCC[B-](c1ccccc1)(c1ccccc1)c1ccccc1.CN(C)C(=N)NC(N)=[NH2+]", "note": "[Comp. Ex. 7, 1,1-dimethylbiguanidium triphenyl(n-butyl)borate, reference compound]", "values": [
      {"measurement": "Curing of epoxy with acid anhydride (in words)", "setting": "[1]", "result": "not capable of efficiently accelerating a reaction"}
    ]},
    {"molecule": "CC(C)NC(=[N+]=C(N(C)C)N(C)C)NC(C)C.Cc1ccc(C#C[B-](c2ccccc2)(c2ccccc2)c2ccccc2)cc1", "note": "[Example 6, 1,2-diisopropyl-4,4,5,5-tetramethylbiguanidium p-tolylethynyl triphenylborate]", "values": [
      {"measurement": "Radical generation (in words)", "setting": "[2]", "result": "not capable of generating a radical; also recorded: does not generate a radical"}
    ]},
    {"molecule": "CCN(CC)C(=O)OCc1c2ccccc2cc2ccccc12", "note": "[WPBG-018, 9-anthrylmethyl N,N-diethylcarbamate]", "values": [
      {"measurement": "Radical generation (in words)", "setting": "[2]", "result": "not capable of generating a radical"}
    ]},
    {"molecule": "tetrakis(tetramethylguanidino)phosphonium p-tolylethynyl triphenylborate [Example 7]", "values": [
      {"measurement": "Radical generation (in words)", "setting": "[2]", "result": "not capable of generating a radical"}
    ]}
  ]
}
